System: Trypanosoma cruzi
Experiment: Antitrypanosomal activity against Trypanosoma cruzi Y epimastigotes after 5 days by resazurin dye-based assay
Settings: 120 h

O=C(Cn1ccnc1[N+](=O)[O-])NCc1ccccc1 [BENZNIDAZOLE]
IC50: 15.9 µM

From ChEMBL document CHEMBL3108733, “Design, synthesis, and evaluation of hydroxamic acid derivatives as promising agents for the management of Chagas disease” (J Med Chem, 2014)
